Measurements: the supplement of paper PMC12819154, “High-throughput peptide-centric local stability assay extends protein–ligand identification to membrane proteins, tissues and bacteria” (Nature Structural & Molecular Biology, 2025)
The list shows a part of the results. Small differences around the control level are noise.

The chains behind the UniProt entries cited, without tags or fusion partners. Where a name states a change or a piece, a line headed by the entry shows the natural chain unless it says otherwise.
UniProt P16591: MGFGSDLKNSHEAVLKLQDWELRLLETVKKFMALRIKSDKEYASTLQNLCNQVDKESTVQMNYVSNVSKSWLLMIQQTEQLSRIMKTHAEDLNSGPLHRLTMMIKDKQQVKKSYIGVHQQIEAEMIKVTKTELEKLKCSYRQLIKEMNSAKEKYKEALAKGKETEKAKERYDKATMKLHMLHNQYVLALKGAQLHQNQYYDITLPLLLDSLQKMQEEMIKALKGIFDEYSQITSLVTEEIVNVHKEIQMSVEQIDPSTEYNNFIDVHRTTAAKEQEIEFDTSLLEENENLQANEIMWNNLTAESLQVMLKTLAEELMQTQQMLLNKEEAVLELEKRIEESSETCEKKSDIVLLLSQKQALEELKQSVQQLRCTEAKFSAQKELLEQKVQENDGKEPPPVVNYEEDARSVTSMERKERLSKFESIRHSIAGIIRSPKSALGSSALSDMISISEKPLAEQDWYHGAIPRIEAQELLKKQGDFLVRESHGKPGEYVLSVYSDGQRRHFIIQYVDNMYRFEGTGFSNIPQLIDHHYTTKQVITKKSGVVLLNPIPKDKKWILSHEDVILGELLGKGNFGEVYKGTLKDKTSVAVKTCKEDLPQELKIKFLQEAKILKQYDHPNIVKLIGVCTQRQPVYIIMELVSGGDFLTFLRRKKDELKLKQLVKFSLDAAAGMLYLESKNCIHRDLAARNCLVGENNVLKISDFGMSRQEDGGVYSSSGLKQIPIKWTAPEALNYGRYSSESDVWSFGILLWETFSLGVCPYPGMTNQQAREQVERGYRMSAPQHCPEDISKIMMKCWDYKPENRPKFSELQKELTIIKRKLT
UniProt P23284: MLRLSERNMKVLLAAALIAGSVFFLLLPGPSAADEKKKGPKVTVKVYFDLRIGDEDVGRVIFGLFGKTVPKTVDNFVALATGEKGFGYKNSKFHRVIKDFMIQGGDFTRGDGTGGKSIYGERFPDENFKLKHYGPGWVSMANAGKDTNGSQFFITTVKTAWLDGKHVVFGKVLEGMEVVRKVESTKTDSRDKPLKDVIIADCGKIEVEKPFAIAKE
UniProt P23327: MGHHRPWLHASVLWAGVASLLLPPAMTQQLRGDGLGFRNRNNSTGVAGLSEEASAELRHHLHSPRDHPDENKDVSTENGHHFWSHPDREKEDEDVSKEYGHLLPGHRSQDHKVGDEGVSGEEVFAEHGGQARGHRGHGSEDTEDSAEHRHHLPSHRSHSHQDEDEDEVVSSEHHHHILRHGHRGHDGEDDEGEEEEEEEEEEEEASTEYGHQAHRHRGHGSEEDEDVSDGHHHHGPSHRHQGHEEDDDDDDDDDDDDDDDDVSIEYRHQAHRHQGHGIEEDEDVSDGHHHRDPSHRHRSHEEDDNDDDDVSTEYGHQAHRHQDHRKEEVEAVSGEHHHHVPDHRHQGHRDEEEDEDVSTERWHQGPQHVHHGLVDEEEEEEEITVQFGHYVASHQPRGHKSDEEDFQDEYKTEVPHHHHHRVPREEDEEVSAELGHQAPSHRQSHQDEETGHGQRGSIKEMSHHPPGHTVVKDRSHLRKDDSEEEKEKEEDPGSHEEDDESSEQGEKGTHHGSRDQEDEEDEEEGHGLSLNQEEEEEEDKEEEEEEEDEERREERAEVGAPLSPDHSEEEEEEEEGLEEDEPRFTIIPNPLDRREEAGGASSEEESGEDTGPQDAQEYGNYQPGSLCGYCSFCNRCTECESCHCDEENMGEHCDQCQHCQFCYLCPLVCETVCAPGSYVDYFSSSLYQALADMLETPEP
UniProt P16118: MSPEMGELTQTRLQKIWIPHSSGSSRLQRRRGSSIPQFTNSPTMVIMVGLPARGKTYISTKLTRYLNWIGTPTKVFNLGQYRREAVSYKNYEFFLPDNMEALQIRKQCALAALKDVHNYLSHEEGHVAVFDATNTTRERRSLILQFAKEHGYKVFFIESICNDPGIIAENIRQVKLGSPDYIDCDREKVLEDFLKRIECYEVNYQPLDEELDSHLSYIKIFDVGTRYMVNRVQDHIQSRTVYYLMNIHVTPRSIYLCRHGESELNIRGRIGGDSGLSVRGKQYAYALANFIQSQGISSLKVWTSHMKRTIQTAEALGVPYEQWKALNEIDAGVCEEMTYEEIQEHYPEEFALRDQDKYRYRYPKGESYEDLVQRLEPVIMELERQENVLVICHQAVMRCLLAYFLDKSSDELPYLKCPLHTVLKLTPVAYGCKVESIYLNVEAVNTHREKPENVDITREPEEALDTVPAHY
UniProt P17030: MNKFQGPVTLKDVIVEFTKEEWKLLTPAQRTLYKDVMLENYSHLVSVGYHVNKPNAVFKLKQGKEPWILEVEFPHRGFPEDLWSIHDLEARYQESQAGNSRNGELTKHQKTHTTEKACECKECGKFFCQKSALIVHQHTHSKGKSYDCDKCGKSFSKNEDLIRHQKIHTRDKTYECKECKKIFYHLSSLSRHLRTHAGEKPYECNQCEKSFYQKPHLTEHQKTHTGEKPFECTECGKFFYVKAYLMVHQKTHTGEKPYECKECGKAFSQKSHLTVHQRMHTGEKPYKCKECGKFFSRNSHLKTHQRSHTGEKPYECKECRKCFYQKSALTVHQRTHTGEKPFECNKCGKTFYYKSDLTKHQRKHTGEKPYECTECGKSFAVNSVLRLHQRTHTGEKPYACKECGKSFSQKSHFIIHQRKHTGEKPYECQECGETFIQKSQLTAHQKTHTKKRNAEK
UniProt P24468: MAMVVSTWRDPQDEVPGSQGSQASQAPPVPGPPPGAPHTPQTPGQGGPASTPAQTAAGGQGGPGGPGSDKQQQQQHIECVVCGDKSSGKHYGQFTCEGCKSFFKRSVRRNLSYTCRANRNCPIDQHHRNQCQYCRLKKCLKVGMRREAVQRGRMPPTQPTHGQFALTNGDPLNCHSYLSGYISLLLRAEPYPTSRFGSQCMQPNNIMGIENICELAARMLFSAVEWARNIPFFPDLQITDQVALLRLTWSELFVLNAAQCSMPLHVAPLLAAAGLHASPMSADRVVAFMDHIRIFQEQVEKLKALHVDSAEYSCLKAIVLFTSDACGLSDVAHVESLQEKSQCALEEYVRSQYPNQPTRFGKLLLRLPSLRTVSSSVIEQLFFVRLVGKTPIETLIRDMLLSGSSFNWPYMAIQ
UniProt P28070, whole entry: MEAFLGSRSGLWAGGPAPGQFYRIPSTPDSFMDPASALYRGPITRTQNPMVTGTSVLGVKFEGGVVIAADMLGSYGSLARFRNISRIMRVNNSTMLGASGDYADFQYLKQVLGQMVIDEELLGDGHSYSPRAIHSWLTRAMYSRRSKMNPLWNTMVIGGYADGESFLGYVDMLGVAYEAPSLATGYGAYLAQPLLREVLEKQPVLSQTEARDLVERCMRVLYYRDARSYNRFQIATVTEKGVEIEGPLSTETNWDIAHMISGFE
UniProt P16157: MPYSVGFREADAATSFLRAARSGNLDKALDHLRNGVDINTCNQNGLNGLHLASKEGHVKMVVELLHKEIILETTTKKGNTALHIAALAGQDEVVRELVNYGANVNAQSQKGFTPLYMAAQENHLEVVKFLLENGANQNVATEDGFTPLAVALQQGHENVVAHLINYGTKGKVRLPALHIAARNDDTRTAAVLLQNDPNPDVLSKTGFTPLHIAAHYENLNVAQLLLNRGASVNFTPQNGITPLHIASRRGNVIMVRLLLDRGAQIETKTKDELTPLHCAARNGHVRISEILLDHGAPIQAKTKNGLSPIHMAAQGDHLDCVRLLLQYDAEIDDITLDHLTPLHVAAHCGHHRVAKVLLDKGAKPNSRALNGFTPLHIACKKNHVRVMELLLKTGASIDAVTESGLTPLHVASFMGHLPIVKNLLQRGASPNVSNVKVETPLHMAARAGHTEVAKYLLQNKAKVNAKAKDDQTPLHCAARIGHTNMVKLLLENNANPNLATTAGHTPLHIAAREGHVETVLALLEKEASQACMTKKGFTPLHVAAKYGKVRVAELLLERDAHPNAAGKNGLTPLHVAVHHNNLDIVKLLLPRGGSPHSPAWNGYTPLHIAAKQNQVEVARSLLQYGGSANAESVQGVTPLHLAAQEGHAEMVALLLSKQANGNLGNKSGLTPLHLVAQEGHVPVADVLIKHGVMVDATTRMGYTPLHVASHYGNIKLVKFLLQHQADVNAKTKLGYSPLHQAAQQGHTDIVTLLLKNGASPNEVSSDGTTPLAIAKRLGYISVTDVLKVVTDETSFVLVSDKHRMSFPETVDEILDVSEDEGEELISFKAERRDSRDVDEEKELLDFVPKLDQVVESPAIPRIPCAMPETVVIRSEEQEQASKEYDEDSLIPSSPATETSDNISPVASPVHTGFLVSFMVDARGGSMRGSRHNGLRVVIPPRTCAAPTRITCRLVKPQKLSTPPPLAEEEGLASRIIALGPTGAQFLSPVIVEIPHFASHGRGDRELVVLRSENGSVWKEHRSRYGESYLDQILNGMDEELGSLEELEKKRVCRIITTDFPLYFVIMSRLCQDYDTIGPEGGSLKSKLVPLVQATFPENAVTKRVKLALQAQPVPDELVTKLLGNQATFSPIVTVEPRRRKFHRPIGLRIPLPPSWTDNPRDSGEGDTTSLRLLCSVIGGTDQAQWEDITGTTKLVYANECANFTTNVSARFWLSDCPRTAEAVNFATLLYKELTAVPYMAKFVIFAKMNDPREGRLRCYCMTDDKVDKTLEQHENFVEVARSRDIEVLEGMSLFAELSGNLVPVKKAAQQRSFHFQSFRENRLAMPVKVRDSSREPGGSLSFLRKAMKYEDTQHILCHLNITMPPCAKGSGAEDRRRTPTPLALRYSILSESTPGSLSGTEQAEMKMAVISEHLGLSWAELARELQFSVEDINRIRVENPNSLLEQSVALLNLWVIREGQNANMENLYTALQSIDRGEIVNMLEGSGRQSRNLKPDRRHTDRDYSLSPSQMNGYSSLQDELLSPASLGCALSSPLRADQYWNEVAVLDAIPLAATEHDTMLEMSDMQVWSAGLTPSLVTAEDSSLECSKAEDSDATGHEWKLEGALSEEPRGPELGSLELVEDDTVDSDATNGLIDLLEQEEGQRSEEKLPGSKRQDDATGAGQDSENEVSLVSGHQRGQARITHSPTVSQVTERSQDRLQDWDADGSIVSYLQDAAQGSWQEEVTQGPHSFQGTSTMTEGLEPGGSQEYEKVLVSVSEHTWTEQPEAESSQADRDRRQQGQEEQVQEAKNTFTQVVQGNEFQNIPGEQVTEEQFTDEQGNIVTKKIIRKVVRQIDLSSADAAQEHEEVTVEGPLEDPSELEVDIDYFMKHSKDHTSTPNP

compound: Cc1nc(Nc2ncc(C(=O)Nc3c(C)cccc3Cl)s2)cc(N2CCN(CCO)CC2)n1 [dasatinib]; assay: log2 fold change of tryptic peptide abundance, ligand vs vehicle (limited proteolysis) (log2 ratio); higher = more trypsin-susceptible (destabilized); details: ligand concentration: 5 uM; sample: K562 cleared lysate

**Q.** With “FER (peptide sequence: MSAPQHCPEDISK, peptide start residue: 779) (UniProt P16591)” as the target, how does the log2 fold change read?
**A.** -0.585

**Q.** How did the log2 fold change turn out when “PPIB (peptide sequence: DKPLKDVIIADCGK, peptide start residue: 191) (UniProt P23284)” was run?
**A.** -0.394

**Q.** With “HRC (peptide sequence: EMSHHPPGHTVVK, peptide start residue: 460) (UniProt P23327)” as the target, how does the log2 fold change read?
**A.** -0.473

**Q.** How did the log2 fold change turn out when “PFKFB1 (peptide sequence: IGGDSGLSVR, peptide start residue: 268) (UniProt P16118)” was run?
**A.** 0.58

**Q.** “ERCC2 (peptide sequence: FGKDVDGK, peptide start residue: 126) (UniProt P18074)” was tested. Which log2 fold change did it give?
**A.** -0.443

**Q.** How did the log2 fold change turn out when “UniProt P17030 (peptide sequence: QGKEPWILEVEFPHR, peptide start residue: 62)” was run?
**A.** -0.337

**Q.** With “UniProt P24468 (peptide sequence: SQYPNQPTR, peptide start residue: 351)” as the target, how does the log2 fold change read?
**A.** -0.111

**Q.** How did the log2 fold change turn out when “PSMB4 (peptide sequence: AIHSWLTR, peptide start residue: 132) (UniProt P28070)” was run?
**A.** 0.0213

**Q.** How did the log2 fold change turn out when “ANK1 (peptide sequence: VAELLLERDAHPNAAGK, peptide start residue: 551) (UniProt P16157)” was run?
**A.** 0.355
